PMC7070008
No constants are given. Whether binding was seen depends on the method and setting. Binding seen in cells or lysates may run through a third protein. A result given as binding can be weak or reduced; the word gives no strength.

B1: β-dystroglycan (protein, UniProt Q62165 652-893)
chain: SIVVEWTNNTLPLEPCPKEQIIGLSRRIADENGKPRPAFSNALEPDFKALSIAVTGSGSCRHLQFIPVAPPSPGSSAAPATEVPDRDPEKSSEDDVYLHTVIPAVVVAAILLIAGIIAMICYRKKRKGKLTLEDQATFIKKGVPIIFADELDDSKPPPSSSMPLILQEEKAPLPPPEYPNQSMPETTPLNQDTVGEYTPLRDEDPNAPPYQPPPPFTAPMEGKGSRPKNMTPYRSPPPYVPP
modifications: glycosylated form detected (glycosylated β-dystroglycan)

Tests used:
[1] = target: T1, α-1-syntrophin (mouse (endogenous in mouse skeletal muscle)) (UniProt Q61234); test: co-IP; α-1-syntrophin antibody, membrane fractions or extracts of mouse muscle; also from mice injected with saline or glucose and muscles expressing shLacz or shJUP (Fig. 3c); immunoblotting
T1 sequence: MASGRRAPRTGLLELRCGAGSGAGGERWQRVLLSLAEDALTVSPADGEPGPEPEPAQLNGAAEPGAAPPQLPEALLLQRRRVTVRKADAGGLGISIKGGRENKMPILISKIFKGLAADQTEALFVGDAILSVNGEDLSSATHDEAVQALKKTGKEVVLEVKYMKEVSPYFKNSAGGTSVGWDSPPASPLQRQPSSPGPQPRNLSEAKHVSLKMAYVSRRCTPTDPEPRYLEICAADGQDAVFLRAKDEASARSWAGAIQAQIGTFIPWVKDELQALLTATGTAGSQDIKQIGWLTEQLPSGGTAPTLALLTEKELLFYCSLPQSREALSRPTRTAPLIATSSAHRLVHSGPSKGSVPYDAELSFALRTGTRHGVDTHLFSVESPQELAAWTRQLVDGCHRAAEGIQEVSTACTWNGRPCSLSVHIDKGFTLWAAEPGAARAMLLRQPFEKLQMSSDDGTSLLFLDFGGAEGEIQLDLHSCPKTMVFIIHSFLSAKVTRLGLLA

[2] = target: T2, plakoglobin (γ-catenin) (mouse (endogenous in mouse skeletal muscle, heart and liver)) (UniProt Q02257); test: co-IP; anti-plakoglobin from fraction #16 of a 10–40% glycerol gradient of the membrane-cytoskeleton fraction of mouse muscle; immunoblotting
T2 sequence: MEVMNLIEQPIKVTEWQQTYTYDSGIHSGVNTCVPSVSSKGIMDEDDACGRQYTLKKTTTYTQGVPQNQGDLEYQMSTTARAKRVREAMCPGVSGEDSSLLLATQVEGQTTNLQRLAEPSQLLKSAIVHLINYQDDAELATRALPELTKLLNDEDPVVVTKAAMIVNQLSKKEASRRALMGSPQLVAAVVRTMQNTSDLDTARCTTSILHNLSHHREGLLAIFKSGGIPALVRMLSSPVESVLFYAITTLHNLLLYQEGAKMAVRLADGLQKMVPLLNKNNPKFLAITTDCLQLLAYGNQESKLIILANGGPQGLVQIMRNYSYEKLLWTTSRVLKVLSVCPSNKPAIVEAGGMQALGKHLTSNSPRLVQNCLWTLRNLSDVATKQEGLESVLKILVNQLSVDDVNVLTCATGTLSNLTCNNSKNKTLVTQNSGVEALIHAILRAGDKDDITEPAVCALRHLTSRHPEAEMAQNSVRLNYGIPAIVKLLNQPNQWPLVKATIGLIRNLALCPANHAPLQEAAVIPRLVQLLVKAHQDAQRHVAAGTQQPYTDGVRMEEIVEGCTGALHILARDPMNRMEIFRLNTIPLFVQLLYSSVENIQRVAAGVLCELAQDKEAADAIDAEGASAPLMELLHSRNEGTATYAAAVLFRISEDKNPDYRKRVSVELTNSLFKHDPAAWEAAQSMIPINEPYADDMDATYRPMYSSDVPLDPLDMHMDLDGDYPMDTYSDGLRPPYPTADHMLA

[3] = target: T2, plakoglobin (γ-catenin) (mouse (endogenous in mouse skeletal muscle, heart and liver)); test: co-IP; coimmunoprecipitation in mouse heart and liver (Supplementary Fig. 2)
plakoglobin-ΔC = test: pull-down; 6His-tagged FL plakoglobin and 6His-V5-tagged truncation mutants purified from transfected mouse muscles on a Nickel column with a histidine gradient; immunoblotting and densitometric protein ratios
ΔN-plakoglobin = test: as above

| Molecule | binding [1] | binding [2] | binding [3] | binding (plakoglobin-ΔC) | binding (ΔN-plakoglobin) |
| --- | --- | --- | --- | --- | --- |
| p85 regulatory subunit of PI3K | binds | binds | binds |  |  |
| B1 |  |  |  | binds | binds |
